Test results as given in patent publication US4988691A (priority 1989, dated 1991).
Structures can show the parent of a compound that is named as a salt. At least one structure is not confirmed: it was looked up by name or label, or the drawing left a doubt.

Legend:
5-HT1 receptors = assay: affinity for 5-HT1 receptors (3H serotonin binding), rat cortex membranes; conditions: 3H-serotonin 5 nM; rat frontal cortex membranes
rat sciatic nerve = assay: local anaesthetic activity on sciatic nerve preparation in vitro; conditions: 8 minutes contact, read-out: ED50 (C.L. 95%)

With `Cc1cc(C(=O)OC2CCCN(C)C2)no1` (centres unmarked) [Compound 10, 5-methylisoxazole-3-carboxylic acid 3-(1-methylpiperidinyl) ester hydrochloride] the “Affinity (IC50) to 5-HT1 receptors” value (5-HT1 receptors) was “inactive” and the IC50 (rat sciatic nerve) was over 15 mM.
